# Source: patent US20060052597A1, “Aryloxyalkylamine derivatives as h3 receptor ligands” (priority 2002, published 2006)
# By UniProt entry, the sequences of proteins in these tests, tags left out. Where a name states a change or a piece, a line headed by the entry shows the natural chain unless it says otherwise.
# UniProt Q9Y5N1: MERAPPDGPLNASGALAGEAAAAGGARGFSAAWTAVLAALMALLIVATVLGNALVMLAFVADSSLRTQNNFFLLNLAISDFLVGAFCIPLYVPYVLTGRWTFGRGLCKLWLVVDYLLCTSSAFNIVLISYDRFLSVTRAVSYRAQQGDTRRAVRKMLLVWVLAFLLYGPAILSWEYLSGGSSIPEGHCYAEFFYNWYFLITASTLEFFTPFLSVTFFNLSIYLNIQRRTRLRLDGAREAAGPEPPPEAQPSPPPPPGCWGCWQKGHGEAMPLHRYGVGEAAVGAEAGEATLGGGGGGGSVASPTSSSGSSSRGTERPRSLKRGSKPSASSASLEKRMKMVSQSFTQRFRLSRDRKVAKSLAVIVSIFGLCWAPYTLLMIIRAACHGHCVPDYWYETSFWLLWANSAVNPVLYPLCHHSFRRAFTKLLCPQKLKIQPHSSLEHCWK
# Some entries share one result that the patent states for a list of compounds. At least one structure is not confirmed: it was looked up by name or label, or the drawing left a doubt.
# Molecular target: T1, histamine H3 receptor (Homo sapiens, UniProt Q9Y5N1)
# T1 construct: expressed in transfected cells; host or cells: CHO K1 cells carrying pSwitch, transfected with pGeneH3 and induced with mifepristone; clone 3H3; membrane preparation
# Assay: Histamine H3 functional antagonist assay ([35S]GTPγS SPA on membranes)
# Format: biochemical
# Conditions: membranes of CHO K1 clone 3H3 expressing human histamine H3, histamine 0.3 μM, guanosine 5'[γ35-S]thiotriphosphate 0.38 nM
# Description: A membrane preparation containing histamine H3 receptors may be prepared in accordance with the following procedures:
# Ligated DNA was transformed into competent DH5α E. coli host bacterial cells and plated onto Luria Broth (LB) agar containing Zeocin™ (an antibiotic which allows the selection of cells expressing the sh ble gene which is present on pGene and pSwitch) at 50 μg ml^−1. Colonies containing the religated plasmid were identified by restriction analysis. DNA for transfection into mammalian cells was prepared from 250 ml cultures of the host bacterium containing the pGeneH3 plasmid and isolated using a DNA preparation kit (Qiagen Midi-Prep) as per manufacturers guidelines (Qiagen).
# CHO K1 cells previously transfected with the pSwitch regulatory plasmid (InVitrogen) were seeded at 2×10e6 cells per T75 flask in Complete Medium, containing Hams F12 (GIBCOBRL, Life Technologies) medium supplemented with 10% v/v dialysed foetal bovine serum, L-glutamine, and hygromycin (100 μg ml^−1), 24 hours prior to use. Plasmid DNA was transfected into the cells using Lipofectamine plus according to the manufacturers guidelines (InVitrogen). 48 hours post transfection cells were placed into complete medium supplemented with 500 μg ml^−1 Zeocin™.
# 10-14 days post selection 10 nM Mifepristone (InVitrogen), was added to the culture medium to induce the expression of the receptor.
# Approximately 1×10e7 cells were examined for receptor expression by staining with a rabbit polyclonal antibody, 4a, raised against the N-terminal domain of the histamine H3 receptor, incubated on ice for 60 minutes, followed by two washes in sorting medium.
# Following two further washes with Sorting Medium, cells were filtered through a 50 μm Filcon™ (BD Biosciences) and then analysed on a FACS Vantage SE Flow Cytometer fitted with an Automatic Cell Deposition Unit. […] Positively stained cells were sorted as single cells into 96-well plates, containing Complete Medium containing 500 μg ml^−1 Zeocin™ and allowed to expand before reanalysis for receptor expression via antibody and ligand binding studies.
# All steps of the protocol are carried out at 4° C. and with pre-cooled reagents. The cell pellet is resuspended in 10 volumes of buffer A2 containing 50 mM N-2-hydroxyethylpiperazine-N′-2-ethanesulfonic acid (HEPES) (pH 7.40) supplemented with […] leupeptin (acetyl-leucyl-leucyl-arginal; Sigma L2884), 25 μg/ml bacitracin (Sigma B0125), 1 mM ethylenediamine tetra-acetic acid (EDTA), 1 mM phenylmethylsulfonyl fluoride (PMSF) and 2×10e-6M pepstain A (Sigma). The cells are then homogenised by 2×15 second bursts in a 1 litre glass Waring blender, followed by centrifugation at 500 g for 20 minutes. The supernatant is then spun at 48,000 g for 30 minutes. The pellet is resuspended in 4 volumes of buffer A2 by vortexing for 5 seconds, followed by homogenisation in a Dounce homogeniser (10-15 strokes). At this point the preparation is aliquoted into polypropylene tubes and stored at −70° C. […]
# The plate is then incubated on a shaker at room temperature for 30 minutes followed by centrifugation for 5 minutes at 1500 rpm. The plate is read between 3 and 6 hours after completion of centrifuge run in a Wallac Microbeta counter on a 1 minute normalised tritium count protocol. Data is analysed using a 4-parameter logistic equation. Basal activity used as minimum i.e. histamine not added to well.
SMILES,pKb,further results
CC(C)N1CCN(C(=O)c2ccc(OCCCN3CCCCC3)cc2)CC1 [Example E3],> 8.5,pKb (listed as Example E3): > 7.5
CC(C)(C)OC(=O)N1CCN(C(=O)c2ccc(OCCCN3CCCCC3)cc2)CC1 [Example E4],> 7.5,
O=C(c1ccc(OCCCN2CCCCC2)cc1)N1CCCNCC1 [Example E5],> 8.5,pKb (listed as Example E5): > 7.5
O=C(c1ccc(OCCCN2CCCCC2)cc1)N1CCN(c2ccc(C(F)(F)F)cn2)CC1 [Example E6],> 8.5,pKb (listed as Example E6): > 7.5
O=C(c1ccc(OCCCN2CCCCC2)cc1)N1CCN(c2ccc(F)cc2)CC1 [Example E7],> 8.5,pKb (listed as Example E7): > 7.5
O=C(c1ccc(OCCCN2CCCCC2)cc1)N1CCN(c2ccccc2Cl)CC1 [Example E8],> 7.5,
O=C(c1ccc(OCCCN2CCCCC2)cc1)N1CCN(c2ccc(Cl)cc2)CC1 [Example E9],> 8.5,pKb (listed as Example E9): > 7.5
O=C(c1ccc(OCCCN2CCCCC2)cc1)N1CCN(c2ncccn2)CC1 [Example E10],> 7.5,
O=C(c1ccc(OCCCN2CCCCC2)cc1)N1CCN(c2ccccn2)CC1 [Example E11],> 7.5,pKb (listed as Eli): > 8.5
Cc1ccccc1N1CCN(C(=O)c2ccc(OCCCN3CCCCC3)cc2)CC1 [Example E12],> 7.5,
COc1ccc(N2CCN(C(=O)c3ccc(OCCCN4CCCCC4)cc3)CC2)cc1 [Example E13],> 8.5,pKb (listed as Example E13): > 7.5
N#Cc1ccc(N2CCN(C(=O)c3ccc(OCCCN4CCCCC4)cc3)CC2)cc1 [Example E14],> 8.5,pKb (listed as Example E14): > 7.5
O=C(c1ccc(OCCCN2CCCCC2)cc1)N1CCN(c2ccnnc2)CC1 [Example E15],> 8.5,pKb (listed as Example E15): > 7.5
O=C(c1ccc(OCCCN2CCCCC2)cc1)N1CCN(c2ccncn2)CC1 [Example E16],> 8.5,pKb (listed as Example E16): > 7.5
O=C(c1ccc(OCCCN2CCCCC2)cc1)N1CCN(c2nc3ccc(Cl)cc3s2)CC1 [Example E18],> 8.5,pKb (listed as Example E18): > 7.5
O=C1CN(C(=O)c2ccc(OCCCN3CCCCC3)cc2)CCN1 [Example E19],> 8.5,pKb (listed as Example E19): > 7.5
O=C(c1ccc(OCCCN2CCCCC2)cc1)N1CCN(c2ncc(C(F)(F)F)cc2Cl)CC1 [Example E21],> 8.5,pKb (listed as Example E21): > 7.5
N#Cc1ccc(N2CCN(C(=O)c3ccc(OCCCN4CCCCC4)cc3)CC2)nc1 [Example E22],> 8.5,pKb (listed as Example E22): > 7.5
COc1ccccc1N1CCN(C(=O)c2ccc(OCCCN3CCCCC3)cc2)CC1 [Example E24],> 8.5,pKb (listed as Example E24): > 7.5
Cc1cc(N2CCN(C(=O)c3ccc(OCCCN4CCCCC4)cc3)CC2)c2ccccc2n1 [Example E25],> 8.5,pKb (listed as Example E25): > 7.5

SMILES,pKb,further results
Cc1ccc(N2CCN(C(=O)c3ccc(OCCCN4CCCCC4)cc3)CC2C)cc1 (stereo not shown) [Example E27],> 7.5,
O=C(c1ccc(OCCCN2CCCCC2)cc1)N1CC2CC1CN2c1ccc(Cl)cc1 (stereo not shown) [Example E28],> 8.5,pKb (listed as Example E28): > 7.5
O=C(c1ccc(OCCCN2CCCCC2)cc1)N1CCN(C(c2ccccc2)c2ccccc2)CC1 [Example E29],> 7.5,
N#Cc1ccc(N2CC3CC2CN3C(=O)c2ccc(OCCCN3CCCCC3)cc2)nc1 (stereo not shown) [Example E31],> 7.5,
O=C(c1ccc(OCCCN2CCCCC2)cc1)N1CCN(CC2CCCO2)CC1 (stereo not shown) [Example E32],> 7.5,
Cc1cccc(N2CCN(C(=O)c3ccc(OCCCN4CCCCC4)cc3)CC2)n1 [Example E33],> 8.5,pKb (listed as Example E33): > 7.5
O=C(c1ccc(OCCCN2CCCCC2)cc1)N1CCN(c2ncccc2C(F)(F)F)CC1 [Example E34],> 7.5,
Cc1cccc(N2CCN(C(=O)c3ccc(OCCCN4CCCCC4)cc3)CC2)c1C [Example E35],> 8.5,pKb (listed as Example E35): > 7.5
O=C(c1ccc(OCCCN2CCCCC2)cc1)N1CCN(c2cccc(Cl)c2Cl)CC1 [Example E36],> 7.5,
O=C(c1ccc(OCCCN2CCCCC2)cc1)N1CCN(c2ccc(C(F)(F)F)cc2)CC1 [Example E37],> 7.5,
O=C(c1ccc(OCCCN2CCCCC2)cc1)N1CCN(c2cnccn2)CC1 [Example E38],> 7.5,
O=C(c1ccc(OCCCN2CCCCC2)cc1)N1CCN(c2ccncc2)CC1 [Example E39],> 7.5,
CC(=O)c1ccc(N2CCN(C(=O)c3ccc(OCCCN4CCCCC4)cc3)CC2)cc1 [Example E40],> 7.5,
Cc1ccc(N2CCN(C(=O)c3ccc(OCCCN4CCCCC4)cc3)CC2)c(C)c1 [Example E42],> 7.5,
O=C(c1ccc(OCCCN2CCCCC2)cc1)N1CCN(Cc2ccncc2)CC1 [Example E43],> 7.5,
CN(C(=O)CN1CCN(C(=O)c2ccc(OCCCN3CCCCC3)cc2)CC1)c1ccccc1 [Example E45],> 7.5,
O=C(c1ccc(OCCCN2CCCCC2)cc1)N1CCN(c2cccc(C(F)(F)F)c2)CC1 [Example E47],> 8.5,pKb (listed as Example E47): > 7.5
O=C(c1ccc(OCCCN2CCCCC2)cc1)N1CCN(c2nccc(C(F)(F)F)n2)CC1 [Example E48],> 7.5,
O=C(c1ccc(OCCCN2CCCCC2)cc1)N1CCN(c2cc(C(F)(F)F)ccn2)CC1 [Example E49],> 8.5,pKb (listed as Example E49): > 7.5
Cc1cccc(N2CCN(C(=O)c3ccc(OCCCN4CCCCC4)cc3)CC2C)c1 (stereo not shown) [Example E50],> 7.5,
